Measurements from patent publication US20030157712A1, “Methods for determining cell responses through EphB receptors” (priority 1997, published 2003).
These are yes or no findings as the source states them, for the method shown. Some entries that bind do so weakly or less than the wild type. For some assays here: Where a sequence is shown, tags or fusion partners need not be part of it. Values belong to the binder of their own block, whether it stands above or below them.

Protein sequences, listed by entry. Tags and fused reporters are not part of them. Residues count along the entry.
UniProt Q8CBF3, residues 18-984: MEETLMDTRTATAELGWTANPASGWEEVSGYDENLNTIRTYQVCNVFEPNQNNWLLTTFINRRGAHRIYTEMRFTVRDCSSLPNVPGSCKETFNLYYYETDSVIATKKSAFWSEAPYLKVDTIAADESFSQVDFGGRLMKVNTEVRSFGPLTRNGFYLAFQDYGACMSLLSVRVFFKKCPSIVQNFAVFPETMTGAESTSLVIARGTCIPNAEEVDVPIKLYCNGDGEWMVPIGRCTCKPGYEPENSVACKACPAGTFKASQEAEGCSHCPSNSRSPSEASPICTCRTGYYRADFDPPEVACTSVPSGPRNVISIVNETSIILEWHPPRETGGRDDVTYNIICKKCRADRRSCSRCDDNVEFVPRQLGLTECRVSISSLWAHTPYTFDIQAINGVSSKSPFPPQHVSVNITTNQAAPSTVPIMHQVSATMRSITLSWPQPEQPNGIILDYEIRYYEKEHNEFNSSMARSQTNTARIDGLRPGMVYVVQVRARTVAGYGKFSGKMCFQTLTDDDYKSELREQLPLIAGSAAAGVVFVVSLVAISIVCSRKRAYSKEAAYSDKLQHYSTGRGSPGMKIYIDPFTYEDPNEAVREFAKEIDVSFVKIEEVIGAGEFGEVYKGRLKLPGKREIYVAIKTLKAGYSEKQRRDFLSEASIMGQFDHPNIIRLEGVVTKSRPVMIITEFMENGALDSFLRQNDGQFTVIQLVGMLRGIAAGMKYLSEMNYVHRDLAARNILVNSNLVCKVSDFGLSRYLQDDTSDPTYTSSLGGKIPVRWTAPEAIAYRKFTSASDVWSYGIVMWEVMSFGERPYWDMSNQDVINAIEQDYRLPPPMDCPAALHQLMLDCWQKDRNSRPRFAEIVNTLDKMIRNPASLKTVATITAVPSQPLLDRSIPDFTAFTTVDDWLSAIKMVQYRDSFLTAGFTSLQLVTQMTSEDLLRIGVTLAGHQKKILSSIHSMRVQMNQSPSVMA
UniProt P54762, residues 18-984: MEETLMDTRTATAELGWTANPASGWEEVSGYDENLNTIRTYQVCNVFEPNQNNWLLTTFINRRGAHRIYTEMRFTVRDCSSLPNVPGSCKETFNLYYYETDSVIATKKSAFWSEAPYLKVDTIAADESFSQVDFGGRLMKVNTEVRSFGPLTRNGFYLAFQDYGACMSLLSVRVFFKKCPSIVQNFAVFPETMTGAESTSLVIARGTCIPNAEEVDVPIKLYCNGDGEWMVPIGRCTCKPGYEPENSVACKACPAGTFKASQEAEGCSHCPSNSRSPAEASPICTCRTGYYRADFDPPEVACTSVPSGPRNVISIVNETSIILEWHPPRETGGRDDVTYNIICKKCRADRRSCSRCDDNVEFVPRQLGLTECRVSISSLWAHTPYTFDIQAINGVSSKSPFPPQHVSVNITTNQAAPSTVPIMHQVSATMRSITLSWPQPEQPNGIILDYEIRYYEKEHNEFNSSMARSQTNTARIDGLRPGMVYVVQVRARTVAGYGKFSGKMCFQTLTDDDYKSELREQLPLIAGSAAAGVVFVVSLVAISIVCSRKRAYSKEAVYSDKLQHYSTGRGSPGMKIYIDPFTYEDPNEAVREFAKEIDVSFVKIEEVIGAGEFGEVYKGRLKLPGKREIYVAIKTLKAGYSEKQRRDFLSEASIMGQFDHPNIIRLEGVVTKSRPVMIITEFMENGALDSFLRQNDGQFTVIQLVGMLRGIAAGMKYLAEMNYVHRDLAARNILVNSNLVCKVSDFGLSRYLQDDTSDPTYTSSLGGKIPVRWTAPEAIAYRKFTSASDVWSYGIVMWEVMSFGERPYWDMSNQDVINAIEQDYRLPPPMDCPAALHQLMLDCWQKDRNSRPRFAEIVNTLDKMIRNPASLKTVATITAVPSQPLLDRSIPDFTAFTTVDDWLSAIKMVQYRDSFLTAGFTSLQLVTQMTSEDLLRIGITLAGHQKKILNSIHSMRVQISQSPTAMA

Tests used:
[1] = molecular target: endogenous EphB1 receptor of P19 cells (teratocarcinoma-derived, pluripotent murine cells) (murine) (UniProt Q8CBF3); test: P19 cell attachment to nitrocellulose surfaces preadsorbed with ephrin-B1/Fc and fibronectin
[2] = molecular target: hEphB1/HA (wild-type human EphB1, HA epitope tagged, expressed from pSRα in P19 or HEK293 cells) (human) (UniProt P54762); test: anti-HA immunoprecipitation from transfected P19 cells stimulated with multimeric ephrin-B1/Fc, immunoblot

B1: ephrin-B1/Fc dimer (disulfide-linked immunoglobulin Fc fusion form of ephrin-B1) (Fc fusion, UniProt P98172 28-237, looked up, not shown: a dimerising Fc or GST)
chain: LAKNLEPVSWSSLNPKFLSGKGLVIYPKIGDKLDIICPRAEAGRPYEYYKLYLVRPEQAAACSTVLDPNVLVTCNRPEQEIRFTIKFQEFSPNYMGLEFKKHHDYYITSTSNGSLEGLENREGGVCRTRTMKIIMKVGQDPNAVTPEQLTTSRPSKEADNTVKMATQAPGSRGSLGDSDGKHETVNQEEKSGPGASGGSSGDPDGFFNSK
binding [1]: binds

binding [2]: binds
B2: endogenous LMW-PTP of P19 cells (enzyme, murine, UniProt Q9D358 2-158, looked up)
chain: AEVGSKSVLFVCLGNICRSPIAEAVFRKLVTDEKVSDNWRIDSAATSTYEVGNPPDYRGQNCMRKHGIHMQHIARQITKEDFATFDYILCMDESNLRDLNRKSNQVKNCKAKIELLGSYDPQKQLIIEDPYYGNDSDFEVVYQQCLRCCKAFLEKTY
